Like-named read-outs stand apart in the source and are kept apart here. These are yes or no findings as the source states them, for the method shown. Binding seen in cells or lysates may run through a third protein. Here binding means that the protein was enriched with, or labelled near, the bait; the list need not be complete. Tags and fused reporters may be left off the sequences shown.
How the values were obtained:
[1] = biological target: T1, miniTurbo-3xFlag-GNB1L (human) (UniProt Q9BYB4); assay: proximity labelling
T1 sequence: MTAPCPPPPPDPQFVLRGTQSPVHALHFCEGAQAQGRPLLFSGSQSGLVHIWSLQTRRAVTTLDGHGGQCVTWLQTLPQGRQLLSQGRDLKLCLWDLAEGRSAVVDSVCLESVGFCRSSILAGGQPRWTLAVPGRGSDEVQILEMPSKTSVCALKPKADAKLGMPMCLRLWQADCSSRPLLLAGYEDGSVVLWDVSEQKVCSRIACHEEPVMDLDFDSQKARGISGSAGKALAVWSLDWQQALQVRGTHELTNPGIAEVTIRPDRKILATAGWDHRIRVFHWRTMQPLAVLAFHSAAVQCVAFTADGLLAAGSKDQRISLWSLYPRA

Protein sequences, listed by entry. Tags and fused reporters are not part of them.
UniProt P78527: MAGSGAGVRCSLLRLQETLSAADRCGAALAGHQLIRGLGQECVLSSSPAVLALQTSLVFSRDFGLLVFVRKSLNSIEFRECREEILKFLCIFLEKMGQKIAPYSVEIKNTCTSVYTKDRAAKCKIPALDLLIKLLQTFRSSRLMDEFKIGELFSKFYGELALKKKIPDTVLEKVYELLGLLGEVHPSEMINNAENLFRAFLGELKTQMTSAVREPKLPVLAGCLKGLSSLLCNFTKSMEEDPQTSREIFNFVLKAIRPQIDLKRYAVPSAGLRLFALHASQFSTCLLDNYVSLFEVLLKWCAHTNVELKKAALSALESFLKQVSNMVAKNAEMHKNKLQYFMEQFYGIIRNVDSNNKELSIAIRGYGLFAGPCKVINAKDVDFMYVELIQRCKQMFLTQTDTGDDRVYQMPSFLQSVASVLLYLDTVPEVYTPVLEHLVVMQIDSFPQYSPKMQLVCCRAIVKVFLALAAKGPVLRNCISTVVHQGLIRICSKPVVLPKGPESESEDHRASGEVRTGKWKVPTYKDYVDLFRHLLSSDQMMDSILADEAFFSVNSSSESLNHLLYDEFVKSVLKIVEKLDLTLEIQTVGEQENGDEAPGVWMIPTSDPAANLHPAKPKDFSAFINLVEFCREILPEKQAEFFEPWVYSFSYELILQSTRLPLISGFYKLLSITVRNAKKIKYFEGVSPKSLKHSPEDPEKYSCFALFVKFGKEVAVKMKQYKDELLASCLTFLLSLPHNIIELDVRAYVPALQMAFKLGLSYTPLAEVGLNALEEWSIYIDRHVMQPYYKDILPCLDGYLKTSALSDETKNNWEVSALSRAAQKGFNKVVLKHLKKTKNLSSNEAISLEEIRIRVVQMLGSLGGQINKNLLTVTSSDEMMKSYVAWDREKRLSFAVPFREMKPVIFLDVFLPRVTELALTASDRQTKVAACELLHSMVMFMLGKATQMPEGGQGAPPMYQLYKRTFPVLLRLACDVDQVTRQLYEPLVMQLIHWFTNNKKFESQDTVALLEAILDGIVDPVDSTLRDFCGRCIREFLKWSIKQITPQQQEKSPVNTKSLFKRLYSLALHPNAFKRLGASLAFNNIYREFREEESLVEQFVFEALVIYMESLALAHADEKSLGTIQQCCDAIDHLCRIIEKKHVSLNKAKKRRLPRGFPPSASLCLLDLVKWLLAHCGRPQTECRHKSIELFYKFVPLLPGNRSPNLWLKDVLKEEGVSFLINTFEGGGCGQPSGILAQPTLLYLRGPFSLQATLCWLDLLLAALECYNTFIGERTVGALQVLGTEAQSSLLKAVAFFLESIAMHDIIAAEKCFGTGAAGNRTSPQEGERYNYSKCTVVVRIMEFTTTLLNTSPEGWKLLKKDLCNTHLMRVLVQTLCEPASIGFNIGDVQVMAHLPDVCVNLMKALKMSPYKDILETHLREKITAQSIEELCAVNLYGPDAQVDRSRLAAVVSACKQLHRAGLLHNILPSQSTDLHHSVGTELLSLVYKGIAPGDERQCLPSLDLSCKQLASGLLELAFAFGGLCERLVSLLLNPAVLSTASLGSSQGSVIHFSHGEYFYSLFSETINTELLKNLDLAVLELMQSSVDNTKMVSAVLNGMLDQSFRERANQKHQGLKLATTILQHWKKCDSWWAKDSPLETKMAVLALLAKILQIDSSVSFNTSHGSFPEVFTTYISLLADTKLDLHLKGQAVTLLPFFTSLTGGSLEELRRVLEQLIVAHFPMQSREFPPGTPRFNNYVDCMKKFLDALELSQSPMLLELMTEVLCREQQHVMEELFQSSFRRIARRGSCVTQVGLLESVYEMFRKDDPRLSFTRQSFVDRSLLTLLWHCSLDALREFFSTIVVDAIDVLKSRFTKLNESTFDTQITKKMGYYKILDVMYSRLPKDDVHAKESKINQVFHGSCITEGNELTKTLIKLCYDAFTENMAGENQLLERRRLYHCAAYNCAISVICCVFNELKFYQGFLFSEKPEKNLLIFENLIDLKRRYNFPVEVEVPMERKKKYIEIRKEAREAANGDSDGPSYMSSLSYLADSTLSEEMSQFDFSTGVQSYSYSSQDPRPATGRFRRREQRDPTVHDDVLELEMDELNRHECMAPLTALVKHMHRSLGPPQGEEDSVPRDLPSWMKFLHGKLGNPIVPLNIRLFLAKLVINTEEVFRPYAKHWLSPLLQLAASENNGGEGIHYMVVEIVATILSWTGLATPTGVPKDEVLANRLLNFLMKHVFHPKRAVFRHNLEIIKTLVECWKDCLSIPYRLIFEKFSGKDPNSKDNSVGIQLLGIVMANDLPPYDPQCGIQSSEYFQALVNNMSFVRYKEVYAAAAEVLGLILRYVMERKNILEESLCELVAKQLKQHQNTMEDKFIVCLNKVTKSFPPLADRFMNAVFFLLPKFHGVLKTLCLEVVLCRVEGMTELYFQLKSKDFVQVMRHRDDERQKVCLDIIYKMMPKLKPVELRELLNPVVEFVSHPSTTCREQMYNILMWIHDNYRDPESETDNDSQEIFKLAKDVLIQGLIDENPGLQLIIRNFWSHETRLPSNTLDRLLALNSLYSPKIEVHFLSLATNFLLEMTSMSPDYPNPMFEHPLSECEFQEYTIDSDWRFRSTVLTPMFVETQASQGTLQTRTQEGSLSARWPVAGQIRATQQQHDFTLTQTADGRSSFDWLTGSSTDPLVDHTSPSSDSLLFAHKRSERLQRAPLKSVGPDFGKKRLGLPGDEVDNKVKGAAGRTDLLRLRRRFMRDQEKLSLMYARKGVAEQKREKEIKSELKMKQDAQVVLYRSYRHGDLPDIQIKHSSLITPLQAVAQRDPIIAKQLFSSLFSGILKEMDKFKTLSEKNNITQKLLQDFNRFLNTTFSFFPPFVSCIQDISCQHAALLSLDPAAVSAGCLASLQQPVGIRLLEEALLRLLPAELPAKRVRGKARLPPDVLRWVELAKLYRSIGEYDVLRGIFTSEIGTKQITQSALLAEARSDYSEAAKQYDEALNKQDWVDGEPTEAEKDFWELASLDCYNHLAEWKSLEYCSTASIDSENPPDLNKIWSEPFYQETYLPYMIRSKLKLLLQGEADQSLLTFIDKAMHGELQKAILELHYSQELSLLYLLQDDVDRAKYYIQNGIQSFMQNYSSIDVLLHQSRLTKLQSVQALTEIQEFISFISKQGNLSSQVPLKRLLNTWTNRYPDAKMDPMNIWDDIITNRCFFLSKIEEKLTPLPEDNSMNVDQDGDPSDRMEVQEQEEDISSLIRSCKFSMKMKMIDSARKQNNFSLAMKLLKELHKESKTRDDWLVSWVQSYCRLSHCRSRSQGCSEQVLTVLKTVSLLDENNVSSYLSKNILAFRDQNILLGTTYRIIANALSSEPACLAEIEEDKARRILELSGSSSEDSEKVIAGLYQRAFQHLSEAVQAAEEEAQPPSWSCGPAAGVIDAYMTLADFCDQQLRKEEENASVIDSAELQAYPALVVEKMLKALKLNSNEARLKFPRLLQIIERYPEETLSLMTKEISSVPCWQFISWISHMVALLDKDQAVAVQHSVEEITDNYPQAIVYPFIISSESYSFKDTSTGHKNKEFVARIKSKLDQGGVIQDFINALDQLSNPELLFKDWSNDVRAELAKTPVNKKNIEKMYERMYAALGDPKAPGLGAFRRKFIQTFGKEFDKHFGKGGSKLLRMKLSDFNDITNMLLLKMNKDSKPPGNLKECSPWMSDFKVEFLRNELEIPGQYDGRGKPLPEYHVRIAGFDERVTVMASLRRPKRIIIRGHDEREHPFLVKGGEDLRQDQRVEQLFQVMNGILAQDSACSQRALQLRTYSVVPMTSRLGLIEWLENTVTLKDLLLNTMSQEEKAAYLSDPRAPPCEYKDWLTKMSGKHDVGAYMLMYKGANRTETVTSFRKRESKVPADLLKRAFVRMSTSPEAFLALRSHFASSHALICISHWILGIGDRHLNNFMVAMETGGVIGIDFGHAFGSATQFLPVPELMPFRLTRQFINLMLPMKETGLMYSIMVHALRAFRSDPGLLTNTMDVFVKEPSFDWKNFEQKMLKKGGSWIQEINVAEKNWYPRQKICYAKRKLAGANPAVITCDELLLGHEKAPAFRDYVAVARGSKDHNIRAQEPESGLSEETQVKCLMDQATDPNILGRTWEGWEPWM
UniProt O43156: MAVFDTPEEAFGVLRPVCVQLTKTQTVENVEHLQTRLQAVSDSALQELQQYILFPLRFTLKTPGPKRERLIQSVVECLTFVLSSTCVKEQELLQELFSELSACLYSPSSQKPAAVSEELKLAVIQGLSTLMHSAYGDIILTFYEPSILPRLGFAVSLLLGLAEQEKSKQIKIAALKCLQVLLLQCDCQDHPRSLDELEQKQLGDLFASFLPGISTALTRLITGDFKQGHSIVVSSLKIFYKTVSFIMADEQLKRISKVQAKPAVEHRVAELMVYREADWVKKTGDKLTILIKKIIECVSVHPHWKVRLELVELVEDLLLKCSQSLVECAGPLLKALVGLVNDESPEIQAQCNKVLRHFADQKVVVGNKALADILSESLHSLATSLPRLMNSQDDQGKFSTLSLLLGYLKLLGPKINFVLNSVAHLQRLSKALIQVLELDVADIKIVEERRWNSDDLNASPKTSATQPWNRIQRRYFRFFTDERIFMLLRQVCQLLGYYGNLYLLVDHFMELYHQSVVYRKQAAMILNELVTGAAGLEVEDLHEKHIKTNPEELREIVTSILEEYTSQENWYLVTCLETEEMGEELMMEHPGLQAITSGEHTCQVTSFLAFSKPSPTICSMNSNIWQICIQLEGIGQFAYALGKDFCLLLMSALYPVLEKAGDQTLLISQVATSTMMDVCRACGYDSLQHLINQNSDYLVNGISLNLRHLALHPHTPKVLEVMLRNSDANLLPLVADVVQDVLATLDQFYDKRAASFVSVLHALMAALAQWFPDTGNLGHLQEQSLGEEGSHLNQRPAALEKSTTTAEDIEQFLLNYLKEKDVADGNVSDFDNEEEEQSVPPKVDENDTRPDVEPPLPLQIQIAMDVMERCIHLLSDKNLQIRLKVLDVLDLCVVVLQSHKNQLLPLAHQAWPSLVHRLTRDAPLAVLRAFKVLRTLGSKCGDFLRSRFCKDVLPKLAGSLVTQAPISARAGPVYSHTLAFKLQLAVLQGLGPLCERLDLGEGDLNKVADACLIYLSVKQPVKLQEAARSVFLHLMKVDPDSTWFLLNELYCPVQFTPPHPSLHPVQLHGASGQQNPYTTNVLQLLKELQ

[2] = biological target: T1, miniTurbo-3xFlag-GNB1L (human); assay: proximity labelling; remark: listed apart in the source

| Molecule | binding [1] | binding [2] |
| --- | --- | --- |
| ATR (from UniProt Q13535 1-2644) | binds | binds |
| DNA-PKcs (from UniProt P78527 1-4128) | binds | binds |
| TRRAP (from UniProt Q9Y4A5 1-3859) | binds | binds |
| TTI1 (from UniProt O43156 1-1089) | binds | binds |
| TTI2 (protein, UniProt Q6NXR4 1-508) MELDSALEAPSQEDSNLSEELSHSAFGQAFSKILHCLARPEARRGNVKDAVLKDLGDLIEATEFDRLFEGTGARLRGMPETLGQVAKALEKYAAPSKEEEGGGDGHSEAAEKAAQVGLLFLKLLGKVETAKNSLVGPAWQTGLHHLAGPVYIFAITHSLEQPWTTPRSREVAREVLTSLLQVTECGSVAGFLHGENEDEKGRLSVILGLLKPDLYKESWKNNPAIKHVFSWTLQQVTRPWLSQHLERVLPASLVISDDYQTENKILGVHCLHHIVLNVPAADLLQYNRAQVLYHAISNHLYTPEHHLIQAVLLCLLDLFPILEKTLHWKGDGARPTTHCDEVLRLILTHMEPEHRLLLRRTYARNLPAFVNRLGILTVRHLKRLERVIIGYLEVYDGPEEEARLKILETLKLLMQHTWPRVSCRLVVLLKALLKLICDVARDPNLTPESVKSALLQEATDCLILLDRCSQGRVKGLLAKIPQSCEDRKVVNYIRKVQQVSEGAPYNGT | – | binds |
